Test: Absorption measurement of 4-thiouracil alkylation by iodoacetamide
Format: physicochemical
Conditions: 10 mM IAA; 50 mM NaPO4, pH8; 50% DMSO; 50° C.; 15 min

Q: With `O=c1[nH]ccc(=S)[nH]1` [4-thiouracil] as the compound, how does the alkylation rate read?
A: at least 98%

Q: And the “decrease of absorption at 335 nm compared to untreated” value?
A: 50 fold
